Our source for the AC50 values is PubChem BioAssay AID662 (National Center for Advancing Translational Sciences (NCATS), 2007).

Molecules are shown by their SMILES. The list shows a part of the results. The main result of the screen is listed elsewhere. These columns were measured beside it and carry no call. Compounds called inactive in the main read-out are mostly missing here. The note in brackets gives the kind of curve behind each potency; many fits are weak.

A short description of the experiment: Cell signaling CRE-BLA (Fsk stim). Conditions: CHO CRE-bla reporter (cAMP response element driving beta-lactamase), forskolin EC10, beta-lactamase ratio; measured here: 460 nm blue channel. A digest of the protocol: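 CHO CRE-bla cells, overnight plating in Opti-MEM with 0.5% dialyzed FBS; cpd titration + EC10 NKH 477, 3 h 37 °C; CCF4 2 h RT; ex 405/em 460 vs 530 ratio → %Activity, AC50.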
For `CCCc1noc2c1C(c1ccoc1)C(C#N)=C(N)N2` (centres undefined), the AC50 is 0.158 µM [falling, partial curve].
The figure for `COc1ccc2[nH]cc(C(=O)CN3CCCCC3)c2c1` is 6.31 µM [falling, partial curve, poor fit]; for `Cc1ccc(S(=O)(=O)NCc2ccncc2)cc1` it is 0.1 µM [falling, partial curve, poor fit].
The figure for `N#Cc1cccc(NC(=O)c2nc(-c3ccccc3)n(-c3ccccc3)n2)c1` is 20 µM [falling, single point]; for `O=c1[nH]c2cc(Cl)ccc2c(O)c1-c1cccc(Oc2ccccc2)c1` it is 15.8 µM [falling, partial curve, poor fit]; for `COc1ccc(C2CC(=O)c3cnc(NC(=O)c4ccccc4)nc3C2)c(OC)c1` (centres undefined) it is 10 µM [rising, single point].
The figure for `Nc1c(C(=O)NC2CCCC2)c2nc3ccccc3nc2n1N` is 10 µM [rising, partial curve].
On to `COc1ccccc1CNC(=O)c1cnc2sccn2c1=O`, for which the AC50 is 10 µM [rising, partial curve].
In the case of `Cn1c(=O)[nH]c(=O)c2c1ncn2CCCc1ccccc1`, the AC50 was 12.6 µM [rising, single point].
Take `CCN(CCCNC(=O)CCc1nc(-c2ccc(C)cc2)no1)c1cccc(C)c1`: the AC50 was 0.00316 µM [falling, full curve, poor fit].
The figure for `Cc1cc(NC(=O)c2ccc(S(=O)(=O)N(C)C)cc2)no1` is 0.2 µM [falling, partial curve].
The figure for `Brc1ccc(-c2nn3c(-c4ccco4)nnc3s2)o1` is 2.51 µM [falling, partial curve]; for `COc1ccccc1CNc1ncnc2ccc(-c3ccccc3C#N)cc12` it is 2 µM [rising, partial curve].
The value for `CCOC(=O)c1[nH]c(C)c(C(=O)Nc2cc(Cl)ccc2C)c1C` was 7.94 µM [rising, partial curve].
For the molecule `CC(C)Cn1cc(C(=O)N2CCN(c3ccccn3)CC2)c2c3ccccc3n(C)c2c1=O`, the AC50 is 0.0794 µM [rising, single point].
With `CC1CCCCC1NC(=O)CSc1nncs1` (centres undefined), the AC50 is 5.01 µM [falling, single point].
The value for `CCN(CC)S(=O)(=O)c1ccc(N2CCCC2)c(C(=O)OCC(=O)/C(C#N)=C(\C)N)c1` was 10 µM [rising, partial curve]; that for `CCN(CC)S(=O)(=O)c1ccc2oc(C(=O)NC(C)C)c(C)c2c1` was 12.6 µM [rising, single point]; that for `COc1ccc(CCn2c(NCc3ccco3)nc3c2c(=O)[nH]c(=O)n3C)cc1` was 3.98 µM [falling, partial curve].

For orientation: AC50 means the concentration giving half of the maximal activity seen.
